The assay addresses T1, Ala10-humanPABPN1-FLAG (human) (UniProt Q86U42).
T1 sequence: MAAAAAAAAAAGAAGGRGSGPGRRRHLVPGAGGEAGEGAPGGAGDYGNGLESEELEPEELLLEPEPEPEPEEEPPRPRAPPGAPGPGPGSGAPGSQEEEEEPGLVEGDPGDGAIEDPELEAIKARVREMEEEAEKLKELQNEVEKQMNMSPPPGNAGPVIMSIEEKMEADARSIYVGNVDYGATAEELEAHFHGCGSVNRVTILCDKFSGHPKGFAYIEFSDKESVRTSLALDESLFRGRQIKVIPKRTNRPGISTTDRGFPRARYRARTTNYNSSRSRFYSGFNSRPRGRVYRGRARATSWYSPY
As to the kind of experiment: co-IP; soluble protein extracts of 4-day fused myotube cultures (150 mM NaCl, 50 mM Tris pH7.5, 0.1% Tween, protease inhibitors); FLAG-tagged PABPN1 bound with rabbit anti-FLAG and precipitated with Protein-A Sepharose; washes with decreasing NaCl (150-0 mM); blot with rabbit anti-Pcolce; parental IM2 extract as control.

Results are given in words; binding and its absence hold for the method and conditions named. In cells and extracts the contact can be indirect. Some entries that bind do so weakly or less than the wild type. Sequences can lack the tags named with a protein.

B1: procollagen C-proteinase enhancer 1 (Pcolce), full-length 48 kDa protein (protein, UniProt Q61398 25-468)
chain: QTPNYTRPVFLCGGDVTGESGYVASEGFPNLYPPNKKCIWTITVPEGQTVSLSFRVFDMELHPSCRYDALEVFAGSGTSGQRLGRFCGTFRPAPVVAPGNQVTLRMTTDEGTGGRGFLLWYSGRATSGTEHQFCGGRMEKAQGTLTTPNWPESDYPPGISCSWHIIAPSNQVIMLTFGKFDVEPDTYCRYDSVSVFNGAVSDDSKRLGKFCGDKAPSPISSEGNELLVQFVSDLSVTADGFSASYRTLPRDAVEKESALSPGEDVQRGPQSRSDPKTGTGPKVKPPTKPKSQPAETPEASPATQATPVAPAAPSITCPKQYKRSGTLQSNFCSSSLVVTGTVKTMVRGPGEGLTVTVSLLGVYKTGGLDLPSPPSGTSLKLYVPCRQMPPMKKGASYLLMGQVEENRGPILPPESFVVLYRSNQDQILNNLSKRKCPSQPRTAA
B1: the binding entry was “binds”.

The record behind these values is paper PMC3717027.
